For some of these results: A negative result means that nothing was seen under these conditions. For some of these results: Protein sequences can lack the tags named with them. For some of these results: Where cells or extracts were used, other partners may take part. For some of these results: For at least one entry, the source does not settle the construct or the ends of the probe.
Key:
[1] = system: TR/CAR chimera (TRbeta A/B and C domains fused to CAR D, E and F domains); test: activity in cells; conditions: JEG3; constitutive, over 50% of intact TR response; protein in cells; only the site is given
[2] = target: T1, human CAR (cotransfected) (Homo sapiens) (UniProt Q14994); test: activity in cells; conditions: 3 copies upstream of TK promoter, HepG2, charcoal-stripped serum; protein in cells; only the site is given
T1 sequence (limits assumed): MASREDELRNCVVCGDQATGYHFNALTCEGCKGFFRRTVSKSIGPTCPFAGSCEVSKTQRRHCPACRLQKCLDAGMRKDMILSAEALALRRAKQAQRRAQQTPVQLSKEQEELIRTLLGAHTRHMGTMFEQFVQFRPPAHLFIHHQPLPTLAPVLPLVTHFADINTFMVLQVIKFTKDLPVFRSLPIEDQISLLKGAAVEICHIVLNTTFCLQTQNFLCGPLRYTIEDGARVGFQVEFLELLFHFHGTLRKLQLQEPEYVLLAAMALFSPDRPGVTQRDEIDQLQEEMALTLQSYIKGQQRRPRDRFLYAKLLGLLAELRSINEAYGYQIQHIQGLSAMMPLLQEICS

[3] = system: T2, mCAR2 (cotransfected) (Mus musculus); test: activity in cells; conditions: no transactivation; protein in cells; only the site is given
T2 sequence (looked up, limits assumed): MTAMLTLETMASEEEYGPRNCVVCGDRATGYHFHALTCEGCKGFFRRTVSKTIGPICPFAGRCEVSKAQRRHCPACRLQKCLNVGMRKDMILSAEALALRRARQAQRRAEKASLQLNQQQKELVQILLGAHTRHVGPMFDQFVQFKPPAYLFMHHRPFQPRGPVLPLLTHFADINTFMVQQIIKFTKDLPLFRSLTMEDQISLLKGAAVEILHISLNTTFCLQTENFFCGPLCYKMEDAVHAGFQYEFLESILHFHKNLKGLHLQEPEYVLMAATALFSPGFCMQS

[4] = system: mCAR1 E355A + RXR (Mus musculus); test: EMSA; conditions: transactivation abolished; protein in a lysate after overexpression; protein details: N-terminal epitope tag, COSM6 whole cell extract
[5] = system: mCAR1 L353A + RXR (Mus musculus); test: EMSA; conditions: transactivation abolished; protein in a lysate after overexpression; protein details: N-terminal epitope tag, COSM6 whole cell extract
[6] = system: mCAR1 D27 (C-terminal deletion) + RXR (Mus musculus); test: EMSA; conditions: transactivation abolished; protein in a lysate after overexpression; protein details: N-terminal epitope tag, COSM6 whole cell extract
[7] = system: mCAR1 D8 (AF-2 deletion) + RXR C-terminal deletion D8 (Mus musculus); test: EMSA; conditions: transactivation abolished; protein in a lysate after overexpression; protein details: N-terminal epitope tag, COSM6 whole cell extract

AAAGGTAAGATCAGGGACGTGACCGCAG (double strand) [T3RE reporter element]
activity on this sequence [1]: active

GGGTAGGGTTCACCGAAAGTTCACTCG (double strand) [betaRARE (RARbeta2 promoter DR-5)]
activity on this sequence [2]: active
activity on this sequence [3]: not active
binding result [4]: binds
binding result [5]: binds
binding result [6]: no binding
binding result [7]: binds
